Our source for the binding values is patent EP4786493A1.

The chains behind the UniProt entries cited, without tags or fusion partners. Where a name states a change or a piece, a line headed by the entry shows the natural chain unless it says otherwise. A line that says so, or that is headed by a name, gives the form on record, which may keep a tag or linker.
recombinant human Claudin 18.2 protein (GenScript, Z03504) (P56856, form named): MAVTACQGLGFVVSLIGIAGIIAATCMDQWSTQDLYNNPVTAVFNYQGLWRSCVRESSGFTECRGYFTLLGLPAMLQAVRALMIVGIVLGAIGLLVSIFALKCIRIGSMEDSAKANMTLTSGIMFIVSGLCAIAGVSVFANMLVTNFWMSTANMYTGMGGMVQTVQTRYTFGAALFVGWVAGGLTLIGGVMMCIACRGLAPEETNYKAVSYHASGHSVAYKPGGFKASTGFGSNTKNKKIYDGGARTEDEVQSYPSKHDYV

These are yes or no findings as the source states them, for the method shown. Some results given as binding are weak or reduced against the parent protein; the word gives no strength.

Test [1] concerns the target recombinant human Claudin 18.2 protein (GenScript, Z03504) (human) (UniProt P56856). Briefly: SPR Biacore 8K. For orientation: In SPR one partner is held on a chip, and binding of the other changes the refractive index at the surface.
For test [2] the target is unchanged. Briefly: indirect ELISA on coated recombinant human Claudin 18.2. For orientation: An ELISA detects its analyte on a solid surface through an enzyme-linked reagent.

B1: AHP30826 (antibody, V domains shown)
VH: QVQLQQSGGGSVQAGGSLRLSCAASGTILSINAMGWYRQAPGKQRELVATITTGGNANYAHSVKGRFTISRDNAKNTVYLQMNNLKPEDTAVYYCNAEQVVVGFLQAYDVWGQGTTVTVSS
VL: DVVMTQSPLSLPVTLGQAASISCRSSQSLVHGDGNTYLNWIQQRPGQSPRRLIYKVSNRDSGVPDRFSGSGSGTDFTLKISRVEAEDVGVYYCMQGTHWPSTFGPGTKVDIK
Turning to B1, the binding entry in test [1] and in test [2] was “binds” in each case.

B2: AHP32919 (antibody, V domains shown)
VH: QVQLQESGGGVVQPGGSLRLSCAASQSIGLLSTMGWYRQAAGKQRELVATITRGGSTNYGEFVKGRFTISRDNAKNTVYLQMNSLKPEDTAVYYCTADESWLGTQSYWGRGTRVTVSS
VL: QAGLTQPPSASGTPGQGVTISCSGSSSNIGSNSVNWYQQLPGTAPKLLMHSNNERSSGVPDRFSGSKSGSSASLAISGLQSEDAADYFCGAWDDSLNGYVFGTGTKLTVL
As for B2, the binding result in test [1] and in test [2] was “binds” throughout.

B3: AHP29153 (antibody, V domains shown)
VH: QLQQVESGGGLVQPGGSLRLSCAASRNIGILSTMGWYRQAPGKQRELVATITRGGSTNYGEFVKGRFTISRDNAKNTVYLQMNSLKPEDTAVYYCNVDESWLGTQSYWGRGTTVTVSS
VL: QSVLTQPASVSGSPGQSITISCTGTSSDVGGYKYVSWYQQPPGKAPKLIIYEVTKRPSGVPDRFSGSKSGNTASLTVSGLQAEDEADYYCLSYAGSNNVFGTGTKLTVL
As for B3, the binding result in test [1] and in test [2] was “binds” in each case.

B4: AHP32913 (antibody, V domains shown)
VH: QVQLMQSGGGLVQPGGSLRLSCAASRNIGILSTMGWYRQAPGKQRELVATITRGGSTNYGEFVKGRFTISRDNAKNTVYLQMNSLKPEDTAVYYCNVDESWLGTQSYWGRGTQVTVSS
VL: QAVVTQEPSLTVSPGGTVTLTCGSSTGPVTSGHYPHWYQQKPGQAPKTLIFDTSHKHPWTPAQFSGSLLGGKAALTLSGAHPEDEAEYYCLLSYSGVRVFGGGTQLIIL
In the case of B4, the binding result in test [1] and in test [2] was “binds” throughout.

B5: AHP31548 (antibody, V domains shown)
VH: QVQLMQSGGGLVQPGGSLRLSCAASRNIGILSTMGWYRQAPGKQRELVATITRGGSTNYGEFVKGRFTISRDNAKNTVYLQMNSLKPEDTAVYYCNVDESWLGTQSYWGRGTTVTVSS
VL: QSALTQPPSASGSPGQSVTISCTGTSSDIGTYNFVSWYQQHPGKAPKLIIYEVSKRPSGVPDRFSGSKSGNTASLTVSGLQAEDEADYYCKSYPRVFGTGTKLTAL
On to B5, for which the binding entry in test [1] and in test [2] was “binds” each time.

B6: AHP32982 (antibody, V domains shown)
VH: QVQLVQSGGGLVQPGGSLRLSCAASRNIGILSTMGWYRQAPGKQRELVATITRGGSTNYGEFVKGRFTISRDNAKNTVYLQMNSLKPEDTAVYYCNVDESWLGTQSYWGRGPLVTVSS
VL: DIVMTQSPSSVSASVGDRVTITCRASQGISSWLAWYQQKPGKAPKLLIYAASSLQSGVPSRFSGSGSGTDFTLTISSLQPEDFATYYCQQANSFPLTFGGGTKVEIK
Turning to B6, the binding entry in test [1] and in test [2] was “binds” throughout.
